This is one part of the list. Shown are side measurements of this screen, not its main read-out; they come without a call. Compounds called inactive in the main read-out are mostly missing here. The note in brackets gives the kind of curve behind each potency; many fits are weak.
Experiment: qHTS Assay for Lipid Storage Modulators in Drosophila S3 Cells;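 for cell number change: cells counted by Cell Tracker Red CMTPX staining in the red channel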
Conditions: BODIPY lipid droplet fluorescence, 18-24 h; for cell number change: measured here: cell count max response, cells fed with added oleic acid
In short: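 Laser-scanning cytometry quantifies lipid droplet accumulation (500–530 nm total intensity; droplet/cell object ratio) in oleic acid-fed (400 uM added) Drosophila S3 cells treated with a concentration series. 20 uM Triacsin C defined 100% inhibition.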

[1] = measured here: lipid fluorescence (Fed channel) AC50, cells fed with added oleic acid
[2] = measured here: cell number channel AC50, cells fed with added oleic acid

Row | Compound | cell number change [%] | AC50 [1] | AC50 [2]
1 | COc1ccccc1Nc1nc(N)nc(CSC(=S)N2CCCCC2)n1 | 17.8 | 0.116 µM [rising, full curve] | –
2 | COC(=O)c1cc(C(=O)OC)cc(N2C(=O)CC(NNC(=O)c3ccc(C)cc3)C2=O)c1 (stereo not drawn) | 47.9 | 0.164 µM [falling, full curve, poor fit] | 29.1 µM [rising, single point]
3 | Cc1ccccc1NC(=O)C(=O)NC(C)CCc1ccccc1 (stereo not drawn) | – | 16.4 µM [falling, partial curve] | –
4 | CCOC(=O)CCCNC(=O)CN1C(=O)NC(c2ccccc2)(c2ccccc2)C1=O | 11.7 | 0.58 µM [rising, single point] | –
5 | COc1ccc(S(=O)(=O)Nc2ccc(OCC(=O)O)cc2)c2ccccc12 | 6.85 | 29.1 µM [falling, single point] | –
6 | COc1ccc(C2c3sc(=O)[nH]c3SC3C4CCC(C4)C23)cc1 (stereo not drawn) | 71.1 | 7.31 µM [rising, partial curve] | 5.8 µM [rising, full curve]
7 | COCCn1c(-c2ccccc2)nc2c(c(=O)c3ccccc3n2C)c1=O | 16.8 | 0.058 µM [rising, full curve, poor fit] | –
8 | O=C(O)C1CSC(c2coc3ccccc3c2=O)N1 (stereo not drawn) | 58.3 | 29.1 µM [rising, single point] | 29.1 µM [rising, single point]
9 | O=C(CN(Cc1ccccc1C(F)(F)F)C(=O)CNC(=O)c1ccco1)NC1CCCC1 | 15.8 | 0.13 µM [falling, full curve, poor fit] | –
10 | CC(O)c1nc2ccccc2n1CC(=O)Nc1ccc2c(c1)OCCO2 (stereo not drawn) | 10 | – | 1.64 µM [rising, partial curve, poor fit]
11 | CCOc1ccc(NC(=O)CCC(=O)Oc2ccc(C)cc2)cc1 | 28.1 | – | –
12 | COc1cc2c(cc1OC)CN(CC(=O)Nc1ccccc1C#N)CC2 | 38.7 | 29.1 µM [rising, single point] | 0.461 µM [rising, single point]
13 | O=C(OC(C(=O)Nc1ccc(Cl)cc1C(F)(F)F)c1ccccc1)c1c(Cl)cccc1Cl (stereo not drawn) | -24 | 6.51 µM [rising, single point] | –
14 | Nc1ccc2oc(CCc3ccccc3)nc2c1 | -3.57 | 29.1 µM [falling, single point] | –
15 | NC(=O)c1ccc(Oc2ncc(C(F)(F)F)cc2Cl)cc1 | -17.2 | 6.51 µM [falling, single point] | –
16 | COc1ccc(C2SCCN2C(=S)Nc2cccc(C(F)(F)F)c2)cc1 (stereo not drawn) | -17.9 | 29.1 µM [falling, single point] | –
17 | CCOC(=O)c1cccc(C2=CC(=O)C[C@H](c3ccc(Cl)cc3)C2)c1 | -28.7 | 2.59 µM [falling, full curve] | 2.59 µM [falling, full curve, poor fit]
18 | O=C1CCc2cc(S(=O)(=O)N3CCCC3C(=O)N3CCN(c4ccccc4F)CC3)ccc2N1 (stereo not drawn) | 6.76 | 0.651 µM [falling, single point] | –
19 | CCOCCCn1c(=N)c(C(=O)NCc2ccc3c(c2)OCO3)cc2c(=O)n3ccccc3nc21 | -11.6 | 4.11 µM [rising, full curve, poor fit] | –
20 | c1ccc(C2[C@H]3CN(CC4CCCCC4)[C@H](c4ccccc4)C34CC2(c2cccnc2)C4)cc1 (stereo partly drawn) | 18.4 | 1.16 µM [rising, full curve] | –
21 | Oc1ccc(Cl)cc1CNCC1CCCCC1 | -35.2 | 29.1 µM [rising, single point] | 20.6 µM [falling, single point]
22 | O=C(Nc1ccc(CN2CCCCC2)cc1)Nc1ccc(Br)cc1Cl | 6.78 | – | –
23 | Cc1c(N(C)C)nc2ccccc2c1N | -23.5 | 25.9 µM [falling, single point] | 4.11 µM [falling, full curve, poor fit]
24 | COc1ccc(-c2[nH]ncc2/C=C(\C#N)C(=O)NC2CC2)cc1 | 8.19 | 0.259 µM [rising, full curve, poor fit] | –
25 | C=C(C)c1nc2cc(OC)c(OC)cc2c(=O)o1 | – | 0.00461 µM [rising, full curve, poor fit] | –
26 | CN(C)c1nc(OCCOC(=O)c2ccccc2)nc(N(C)C)n1 | -14.2 | 29.1 µM [rising, partial curve] | 0.731 µM [rising, single point]
27 | O=c1ccc(N=Nc2ccccc2)ccc1O | -21.3 | 16.4 µM [falling, partial curve] | –

Quoted at random: two entries already listed
Row | Compound | cell number change [%] | AC50 [1] | AC50 [2]
5 | COc1ccc(S(=O)(=O)Nc2ccc(OCC(=O)O)cc2)c2ccccc12 | 6.85 | 29.1 µM [falling, single point] | –
20 | c1ccc(C2[C@H]3CN(CC4CCCCC4)[C@H](c4ccccc4)C34CC2(c2cccnc2)C4)cc1 (stereo partly drawn) | 18.4 | 1.16 µM [rising, full curve] | –
